B1: il10ra_site1_normal_mot_HHH_b1_06816_000000239_0001_1_19_H_._HHH_b1_07754_0001_0000400009_0000002_0 (protein)
chain: SSSSSSDREEEAEELLEELKQIPDPDERFKLAREAIQLAVEAGDPELARRISRLAAELSSSSSSS
B2: il10ra_site1_sap_15_mot_HHH_b1_05860_000000142_0001_1_19_H_._HHH_b1_01898_0001_0000200013_0000001_1_0001 (protein)
chain: SSSSSNERELLEAALRIIEQILEIGDPEAARRMLRALKRVAEQANDEEIEREVERLEEELSSSSS
B3: il10ra_site1_normal_mot_HHH_b2_06979_000000158_0001_42_57_H_._HHH_b2_06735_af2_0001_0000400035_0000001_0 (protein)
chain: SSSSDAELSQEAIRIIREAAELFRNGNPEEARELLEELREELEKAGNRLLLINVEYLLRDLSSSS
B4: il10ra_site1_sap_25_mot_HHH_b2_05111_af2_000000002_0001_42_56_H_._HHH_b1_02823_0001_0000300034_0000001_0_0001_af2pred_0001 (protein)
chain: DPRKEELEEEIERVLEEFEKGKIDPEQAEELLAELIYIAARLGDEEALKLALQAFAKIRKALQES
B5: il10ra_site1_sap_15_mot_e1dd4851c59bc1cdde016f988f6856bd_0001_1_000000200_0001_16_31_H_._HEEHE_1920_af2_0001_0000300004_0000001_1_0001 (protein)
chain: SSSSDLYEHVERLIEEVDRLLREGDKEEAEEVLKELEEFAKRHNDWVARAVVELLERLIEGSSSS
B6: il10ra_site1_normal_mot_HHH_b1_05357_000000034_0001_23_39_H_._HHH_b1_07367_af2_0001_0000600023_0000001_0_af2pred_0001 (protein)
chain: SSSSDEEAEEIEEELEELLKRGDLEEAKKLLRRLLELAVHLRDPELAYAAIRIFAIINRLSSSSS
B7: il10ra_site1_sap_14_mot_HHH_b2_04680_000000215_0001_1_16_H_._HHH_b1_04704_0001_0000200020_0000001_0_0001_af2pred_dldesign_0_af2pred (protein)
chain: SAELRARLLAVLTEVLGDPALAQAVLDHLEAQAGGDPRAIAERARALLELLGREEAAARVRELLE
B8: il10ra_site1_normal_mot_HHH_b1_06994_000000193_0001_40_55_H_._HHH_b1_03549_af2_0001_0000100003_0000001_0 (protein)
chain: SSSSDQEEELFEAVQRLLEQAEEHGDERLLRALLIALRKLAELLKDPELEEIVKRLEEELSSSSS
B9: il10ra_site1_normal_mot_HHH_b1_01011_000000096_0001_1_19_H_._HHH_b1_01500_0001_0000100003_0000001_0_1_af2pred_0001 (protein)
chain: SSSSSREEEALRLSLKFVRFLLKQGDPEAAEFILRAAKQLAERSNDEELLEEIRELLKELNSSSS
B10: il10ra_site1_normal_mot_HHH_b1_04592_af2_000000261_0001_39_52_H_._HHH_b1_05275_af2_0001_0000300010_0000001_1_af2pred_0001 (protein)
chain: SSSSNEVKEEVAKLLAEAFLAAMKGNPEEVEELLREAEEVAREHNDPQAENLVRVVKRLLSSSSS
B11: il10ra_site1_sap_13_mot_HHH_b2_03220_af2_000000223_0001_23_40_H_._6d8c65c56f735b695b51d067c36b126f_0001_0001_0000400010_0000001_1_0001 (protein)
chain: SSSSEEERVKELREEIEELEEEGDTERVLEILQEILRLIYQLGDEEKLRELWEILKRLAEERSSS
B12: il10ra_site1_normal_mot_HHH_b1_06837_000000150_0001_20_37_H_._HHH_b2_04232_0001_0000100011_0000001_0_af2pred_dldesign_0_af2pred (protein)
chain: SSSSSSPTEELVALIREAAELLGEGKYEEAKELLDKAKELAEKQNNPLALAALARLEKELSSSSS
B13: il10ra_site1_sap_19_mot_HHH_b2_04681_000000155_0001_43_57_H_._HHH_b1_01263_0001_0000100012_0000001_0_0001 (protein)
chain: SSSSDEAERYVKLALRFARWLAEEGDPEAAKRMIEAAHVIAENNNNPELEELVREAEEELSSSSS
B14: il10ra_site1_sap_12_mot_HHH_b2_03831_000000013_0001_40_54_H_._HHH_b2_02451_af2_0001_0000100005_0000001_0_0001 (protein)
chain: SSSSDEEVVRLLQEAFEAILHGDPEKAEEIAEEALRLAEELGDPRLERIARDLLQAIRARGSSSS
B15: il10ra_site1_sap_24_mot_HHH_b1_03900_000000129_0001_1_16_H_._HHH_b2_05734_af2_0001_0000100005_0000001_0_0001 (protein)
chain: SSSSSSEEEFEEIVERLEELGNPHLAELVRAALRLYRQVGSEFFHLAAELALELAEERGSSSSSS
B16: il10ra_site1_sap_15_mot_HHH_b2_00943_af2_000000149_0001_1_17_H_._HHH_b1_04057_0001_0000100001_0000002_0_0001 (protein)
chain: SSSREEVEEIVEEAKKLAKEQNDEELERYVEIARHFVEAALKQGNEELAEMIARMLLKAVRDASS
B17: il10ra_site1_sap_20_mot_ems_3hM_235_000000244_0001_46_64_H_._HHH_b1_03746_0001_0000200014_0000001_0_0001 (protein)
chain: SSSSTDEELLEAALRLAEQALEWGDPEAARFLVEAAIMLAREINDEELLEELERLLEELESSSSS
B18: il10ra_site1_normal_mot_HHH_b2_08050_000000089_0001_21_37_H_._HHH_b2_00643_0001_0000200012_0000001_0 (protein)
chain: SSSSSYAEQVRRFVRALIEFSEKTGDERALEAAKSILRLAIESLGDPELEELLHELEELLSSSSS
B19: il10ra_site1_sap_16_mot_HHH_b2_02736_000000092_0001_22_38_H_._HHH_b1_04467_0001_0000300024_0000002_0_0001 (protein)
chain: SSSSSDEEEIKELSEEAKELLEKGNPEEALRVLLEALRLALRLGDEELLQELWELIKRVASSSSS

Some of the results follow.

The target of this test is il10ra, Q13651. Kind of test: yeast display titration.
For B1, the “apparent Kd” value was “inactive: no binding seen”.

Regarding B2, the “apparent Kd” value was “inactive: no binding seen”.

On to B3, for which the “apparent Kd” value is “inactive: no binding seen”.

Turning to B4, the “apparent Kd” value was “inactive: no binding seen”.

As for B5, the “apparent Kd” value is “inactive: no binding seen”.

In the case of B6, the “apparent Kd” value was “inactive: no binding seen”.

Consider B7, for which the “apparent Kd” value was “inactive: no binding seen”.

B8: the “apparent Kd” value is “inactive: no binding seen”.

As to B9, the “apparent Kd” value is “inactive: no binding seen”.

Consider B10, for which the “apparent Kd” value was “inactive: no binding seen”.

As for B11, the “apparent Kd” value is “inactive: no binding seen”.

For B12, the “apparent Kd” value was “inactive: no binding seen”.

On to B13, for which the “apparent Kd” value is “inactive: no binding seen”.

For B14, the “apparent Kd” value was “inactive: no binding seen”.

As to B15, the “apparent Kd” value was “inactive: no binding seen”.

As for B16, the “apparent Kd” value is “inactive: no binding seen”.

On to B17, for which the “apparent Kd” value was “inactive: no binding seen”.

With B18, the “apparent Kd” value is “inactive: no binding seen”.

As to B19, the “apparent Kd” value is “inactive: no binding seen”.

For the origin of these results see paper PMC10163288.
